# Results deposited as PubChem BioAssay AID1159578 (Peter MacCallum Cancer Centre, 2015).
# Test: 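siRNA pools altering how lymphatic endothelial cells close a scratch wound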 (primary screen)
# System: human lymphatic endothelial cells
# Reagent: siRNA pool against human genes, 40 nM
# Timing: 48 h after transfection
# Measurement: 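High-content imaging of dye-stained cells in a scratch assay measures filled wound area and nuclei per well; duplicate means given as ratio to mock and robust z-score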
# Reading the numbers: migration robust z-score: higher = faster migration into the scratch; nuclei per well: higher = more cells in the well
# Active means: 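Pools averaging fewer than 3300 nuclei are never called; remaining pools count as changed when migration robust z lies outside -2 to 2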
# Meaning of the calls: active = migration changed; inactive = no migration change, or too few cells
# The whole screen tested about 18,000 reagents; this is an unselected part. Of all reagents, about 1,030 (5.7%) were called active. 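Inactive calls also include pools with fewer than 3300 nuclei, whose migration was not assessed.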 The raw values are shown without normalisation. Not all columns of the deposit are shown. No sequences are given here.
gene,migration robust z-score,migration class with cell-count check,"nuclei per well, duplicate mean",outcome
IGDCC4,-0.15,migration z between -2 and 2; enough cells,6166,inactive
TRIM58,1.43,migration z between -2 and 2; enough cells,6682,inactive
FXYD1,-0.44,migration z between -2 and 2; enough cells,3559,inactive
CHD4,-2.08,migration z below -2; enough cells,4318,active
FYB1,0.44,migration z between -2 and 2; enough cells,6626,inactive
CLN8,1.44,migration z between -2 and 2; enough cells,7319,inactive
NUDC,-1.53,migration z between -2 and 2; enough cells,6285,inactive
WHAMM,-2.25,migration z below -2; enough cells,5510,active
COA3,1.21,migration z between -2 and 2; enough cells,5402,inactive
ZBTB20,-0.58,migration z between -2 and 2; enough cells,4896,inactive
HABP4,0.78,migration z between -2 and 2; enough cells,6106,inactive
PRMT2IP,-0.6,migration z between -2 and 2; enough cells,6070,inactive
MANEA,1.07,migration z between -2 and 2; enough cells,6298,inactive
CDK2,0.47,migration z between -2 and 2; enough cells,5114,inactive
ZNF24,-1.87,migration z between -2 and 2; enough cells,4564,inactive
GARIN1B,1.03,migration z between -2 and 2; enough cells,5705,inactive
C1S,-0.13,migration z between -2 and 2; enough cells,5688,inactive
HNRNPDL,0.45,migration z between -2 and 2; enough cells,5671,inactive
DUSP7,1.12,migration z between -2 and 2; enough cells,5436,inactive
RPL19,-0.05,migration z between -2 and 2; enough cells,4160,inactive
C20orf96,0.78,migration z between -2 and 2; enough cells,5564,inactive
DDIT4L,1.25,migration z between -2 and 2; enough cells,5726,inactive
MGAT3,-0.49,migration z between -2 and 2; enough cells,5776,inactive

Sorted by “nuclei per well, duplicate mean” (descending): some entries from above.
gene,migration robust z-score,migration class with cell-count check,"nuclei per well, duplicate mean",outcome
MANEA,1.07,migration z between -2 and 2; enough cells,6298,inactive
CDK2,0.47,migration z between -2 and 2; enough cells,5114,inactive
ZNF24,-1.87,migration z between -2 and 2; enough cells,4564,inactive
